PubChem BioAssay AID686938, Drosophila RNAi Screening Center – 2013
In all, the deposit lists about 23,000 reagents; this is a random part of those that have a named target and a result. Over the whole deposit, 75 (0.33%) were called active. 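Raw plate signals without normalisation; calls rest on plate z-scores that were not deposited; ratio present for only 364 wells.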 Entries without a mark were called inactive. Reagents against one gene are numbered here. Not given: the dose of the treatment.

- Screen: 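Knock-downs reducing store-operated calcium influx in Drosophila cells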 (primary screen)
- System: Drosophila S2R+ cells
- Knock-down reagent: long dsRNA against Drosophila genes, about 0.25 µg dsRNA per well, roughly 10,000 cells
- Time to read-out: 5 days of knock-down before the calcium assay
- Treatment: thapsigargin (SERCA pump blocker) to empty calcium stores; entry signal taken 4 min after adding it
- Read-out: 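Per-well fluo-4 fluorescence in two replicates, unnormalised, measured in resting cells and 4 min after store depletion by the SERCA blocker thapsigargin; ratio of the two present in few wells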
- Direction: calcium entry signal: higher = stronger calcium signal after store depletion; entry to resting ratio: higher = more calcium entry relative to resting level; resting calcium signal: higher = higher resting calcium signal
- Call rule: 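Hit if the duplicate-averaged plate z-score for entry over resting signal is under −3; wells with weak total dye signal (Fmax z < −2) or more than 5 off-targets removed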
- Calls: active = strongly reduced calcium entry; inactive = no strong reduction

gene knocked down | reagent no. | calcium entry signal, replicate 1 (fluorescence units) | calcium entry signal, replicate 2 (fluorescence units) | entry to resting ratio | resting calcium signal, replicate 1 (fluorescence units) | resting calcium signal, replicate 2 (fluorescence units)
CG11357 | 1 | 2.42e7 | 7.37e7 | – | 1.15e7 | 2.54e7
dbf | 1 | 3.55e7 | 4.43e7 | – | 1.73e7 | 1.86e7
Snx21 | 1 | 4.53e7 | – | – | 2.00e7 | –
Gbs-76A | 1 | 3.96e7 | 4.52e7 | – | 1.88e7 | 2.83e7
snky | 1 | 3.45e7 | 4.72e7 | – | 1.81e7 | 2.06e7
CG12321 | 1 | 5.79e7 | 4.43e7 | – | 2.76e7 | 1.93e7
CG13074 | 1 | 3.83e7 | 5.61e7 | – | 1.95e7 | 2.35e7
CG3526 | 1 | 5.45e7 | 4.58e7 | – | 2.61e7 | 1.98e7
CG3526 | 2 | 6.93e7 | 5.84e7 | 2.1 | 3.27e7 | 2.57e7
yl | 1 | 2.47e7 | 3.46e7 | – | 1.40e7 | 1.72e7
bdwf | 1 | 3.33e7 | 2.85e7 | – | 1.52e7 | 1.32e7
CG6431 | 1 | 2.30e7 | 3.74e7 | – | 1.18e7 | 1.70e7
CG33259 | 1 | 3.78e7 | 5.84e7 | – | 1.90e7 | 2.37e7
Nepl12 | 1 | 3.66e7 | 3.52e7 | – | 1.86e7 | 1.80e7
CG17292 | 1 | 5.35e7 | – | – | 2.28e7 | –
CG5708 | 1 | 3.11e7 | 4.05e7 | – | 1.58e7 | 1.82e7
CR30409 | 1 | 3.10e7 | 4.42e7 | – | 1.54e7 | 2.45e7
MYPT-75D | 1 | 3.99e7 | 4.81e7 | – | 1.86e7 | 3.28e7
CG42694 | 1 | 2.91e7 | 5.68e7 | – | 1.42e7 | 2.27e7
D1 | 1 | 4.24e7 | 4.64e7 | – | 1.93e7 | 2.08e7
CheA7a | 1 | 3.43e7 | 3.55e7 | – | 1.71e7 | 1.65e7
InR | 1 | 3.22e7 | 3.84e7 | – | 4.87e7 | 1.63e7
Adk3 | 1 | 3.67e7 | – | – | 1.96e7 | –
CG14219 | 1 | 3.50e7 | 4.62e7 | – | 1.96e7 | 2.20e7
Neu2 | 1 | 2.23e7 | 3.47e7 | – | 1.05e7 | 1.49e7
Sbds | 1 | 3.91e7 | 2.97e7 | – | 2.61e7 | 1.23e7
CG14860 | 1 | 3.80e7 | 4.58e7 | – | 1.82e7 | 6.00e7
CG7650 | 1 | 6.92e7 | 2.35e7 | – | 2.73e7 | 1.17e7
CG14646 | 1 | 4.05e7 | 6.85e7 | – | 1.95e7 | 3.20e7
CG14646 | 2 | 2.47e7 | 2.47e7 | – | 1.37e7 | 1.17e7
CG7332 | 1 | 4.07e7 | 3.95e7 | – | 1.93e7 | 1.56e7
blo | 1 | 5.51e7 | 4.29e7 | – | 2.47e7 | 2.01e7
Nckx30C | 1 | 2.98e7 | 5.36e7 | – | 1.46e7 | 2.12e7
Nckx30C | 2 | 2.99e7 | 5.48e7 | – | 1.39e7 | 2.14e7
Nckx30C | 3 | 3.41e7 | 4.10e7 | – | 1.56e7 | 1.72e7
Nckx30C | 4 | 3.12e7 | 3.38e7 | – | 1.80e7 | 1.70e7
Usp10 | 1 | 2.50e7 | 2.22e7 | – | 1.19e7 | 1.06e7
Usp10 | 2 | 2.31e7 | 3.31e7 | – | 1.33e7 | 1.55e7
CG15160 | 1 | 3.36e7 | 4.32e7 | – | 1.72e7 | 1.82e7
CG2852 | 1 | 3.52e7 | 4.93e7 | – | 1.89e7 | 2.11e7
CG7025 | 1 | 3.99e7 | 3.05e7 | – | 2.00e7 | 1.46e7
Nle | 1 | 2.37e7 | 2.00e7 | – | 1.26e7 | 9.99e6

Copied from the list:
Under “resting calcium signal, replicate 1 (fluorescence units)”, Nckx30C #4 shows 1.80e7
For “calcium entry signal, replicate 1 (fluorescence units)”, CG5708 is entered as 3.11e7
Entry for CG6431 under “resting calcium signal, replicate 1 (fluorescence units)”: 1.18e7
Result for CG14860 under “resting calcium signal, replicate 2 (fluorescence units)”: 6.00e7
Result of CG7025 in “calcium entry signal, replicate 2 (fluorescence units)”: 3.05e7
Result for CG14219 in “resting calcium signal, replicate 1 (fluorescence units)”: 1.96e7

The listing continues.
gene knocked down | reagent no. | calcium entry signal, replicate 1 (fluorescence units) | calcium entry signal, replicate 2 (fluorescence units) | entry to resting ratio | resting calcium signal, replicate 1 (fluorescence units) | resting calcium signal, replicate 2 (fluorescence units)
park | 1 | 4.51e7 | 4.24e7 | – | 1.88e7 | 2.86e7
ZnT77C | 1 | 2.80e7 | 4.57e7 | – | 1.41e7 | 2.02e7
ZnT77C | 2 | 2.78e7 | 4.98e7 | – | 1.42e7 | 2.06e7
CG33257 | 1 | 3.69e7 | 5.45e7 | – | 1.72e7 | 2.35e7
Pepck1 | 1 | 6.14e7 | 7.31e7 | – | 2.65e7 | 3.26e7
COX1 (retired record) | 1 | 3.56e7 | 4.13e7 | – | 1.95e7 | 1.87e7
Hsp68 | 1 | 5.76e7 | 5.50e7 | – | 2.66e7 | 2.20e7
CG14464 | 1 | 3.13e7 | 3.98e7 | – | 1.62e7 | 1.84e7
pds5 | 1 | 3.30e7 | 3.20e7 | – | 1.73e7 | 1.64e7
Agpat4 | 1 | 4.62e7 | 7.47e7 | – | 2.08e7 | 2.83e7
CG9171 | 1 | 4.91e7 | – | – | 2.28e7 | –
CG9171 | 2 | 3.30e7 | 3.04e7 | – | 1.94e7 | 1.42e7
CG9967 | 1 | 3.51e7 | 8.77e7 | – | 1.91e7 | 3.52e7
CG12773 | 1 | 3.79e7 | 4.13e7 | – | 1.80e7 | 2.04e7
RhoGEF2 | 1 | 4.36e7 | 3.51e7 | – | 1.82e7 | 1.67e7
Pgant1 | 1 | 4.22e7 | 3.66e7 | – | 2.22e7 | 1.63e7
Mlh1 | 1 | 4.17e7 | 4.25e7 | – | 1.90e7 | 2.06e7
CG13544 | 1 | 3.78e7 | 3.86e7 | – | 2.04e7 | 1.92e7
Sfmbt | 1 | 4.64e7 | – | – | 2.32e7 | –
Cbp53E | 1 | 4.20e7 | 3.40e7 | – | 1.98e7 | 1.74e7
CG15710 | 1 | 5.32e7 | 4.53e7 | – | 2.16e7 | 2.05e7
Tmem214 | 1 | 2.89e7 | 3.03e7 | – | 1.26e7 | 1.32e7
Tmem214 | 2 | 3.09e7 | 3.26e7 | – | 1.39e7 | 1.42e7
RpL26 | 1 | 9.66e6 | 9.85e6 | – | 6.68e6 | 7.40e6
CG42523 | 1 | 5.28e7 | 3.86e7 | – | 2.44e7 | 1.81e7
Cpr67Fb | 1 | 2.56e7 | 3.11e7 | – | 1.26e7 | 1.48e7
Ercc1 | 1 | 2.26e7 | 2.92e7 | – | 1.29e7 | 1.58e7
beta4GalNAcTA | 1 | 4.66e7 | 3.35e7 | – | 2.39e7 | 1.79e7
crq | 1 | 2.81e7 | 3.03e7 | – | 1.43e7 | 1.38e7
Pli | 1 | 3.29e7 | 3.81e7 | – | 1.69e7 | 1.68e7
CG5280 | 1 | 3.51e7 | 4.21e7 | – | 1.71e7 | 1.80e7
CG5280 | 2 | 2.94e7 | 5.13e7 | – | 1.44e7 | 2.24e7
CG9452 | 1 | 3.06e7 | 4.97e7 | – | 1.39e7 | 2.08e7
CG9452 | 2 | 3.15e7 | 3.33e7 | – | 2.03e7 | 1.40e7
